The record followed here is article doi:10.1101/2025.07.01.662281.

No constants are given. Whether binding was seen depends on the method and setting. Binding seen in cells or lysates may run through a third protein. These calls come from enrichment with a bait or labelling near it, and not all partners need be listed.

The target in the assay is T1, full-length Tmem127-BirA (UniProt Q8BGP5).
T1 sequence: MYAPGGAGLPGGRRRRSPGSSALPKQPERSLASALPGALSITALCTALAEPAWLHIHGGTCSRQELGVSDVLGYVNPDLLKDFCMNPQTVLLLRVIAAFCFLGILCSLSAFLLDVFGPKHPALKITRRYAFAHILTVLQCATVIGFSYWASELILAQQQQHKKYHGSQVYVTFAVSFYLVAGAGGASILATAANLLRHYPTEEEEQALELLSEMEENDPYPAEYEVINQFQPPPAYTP
Briefly: proximity labelling.

B1: Vps51 (protein, UniProt Q3UVL4 1-782)
chain: MAAAAAVGPGLGSGPGDSPEGPEADAPERRRKAHGMLKLYYGLSEGEVAGHPAGPDPLDPTDLNGAHFDPEVYLDKLRRECPLAQLMDSETDMVRQIRALDSDMQTLVYENYNKFISATDTIRKMKNDFRKMEDEMDRLATNMAVITNFSARISATLQDRHERITKLAGVHALLRKLQFLFELPSRLTKCVELGAYGQAVRYQGRARAVLQQYQHLPSFRAIQDDCQVITARLAQQLRQRFREGCSGAPEQAECVELLLALGEPAEELCEEFLAHARGRLEEELSSLEAELGPSPPAPDVLEFTDRGGNGFVGGLCQVAAAYQELFAAQGPAGAEKLAAFAQELGGRYFALVERRLAQEQGGSDNSLLVRALDRFHRRLRAPGALLAAAGLSESATEIVERVARERLSHHLQGLKAAFLSSLTDVRQALAAPRLAGKEGPSLAELLANVASSILSHIKTSLASVHLFTAKEVSFSNKPYFRGEFCSQGVREGLIVGFIRSMCQTAQSFCDSPGEKGGATPPALLLLLSRLCLDYETATISYILTLTDEQFLVQDQSPVTPVSTLCAEARETARRLLTHYVKVQGLVISQMLRKSVETRDWLSTLEPRNVRAVMKRVVEDTTAIDVQVGLLYEEGVRKAQSSDSSKRTFSVYSSSRQQGRYAPSYTPSAPMDTNLLSNIQKLFSERIDVFSPVEFNKVSVLTGIIKISLKTLLECVRLRTFGRFGLQQVQVDCHFLQLYLWRFVADEELVHLLLDEVVASAALRCPDPVPMEPSVVEVICERG
B1: the binding entry was “binds”.

B2: CD120b/Tnfrsf1b (receptor, UniProt P25119 23-474)
chain: VPAQVVLTPYKPEPGYECQISQEYYDRKAQMCCAKCPPGQYVKHFCNKTSDTVCADCEASMYTQVWNQFRTCLSCSSSCTTDQVEIRACTKQQNRVCACEAGRYCALKTHSGSCRQCMRLSKCGPGFGVASSRAPNGNVLCKACAPGTFSDTTSSTDVCRPHRICSILAIPGNASTDAVCAPESPTLSAIPRTLYVSQPEPTRSQPLDQEPGPSQTPSILTSLGSTPIIEQSTKGGISLPIGLIVGVTSLGLLMLGLVNCIILVQRKKKPSCLQRDAKVPHVPDEKSQDAVGLEQQHLLTTAPSSSSSSLESSASAGDRRAPPGGHPQARVMAEAQGFQEARASSRISDSSHGSHGTHVNVTCIVNVCSSSDHSSQCSSQASATVGDPDAKPSASPKDEQVPFSQEECPSQSPCETTETLQSHEKPLPLGVPDMGMKPSQAGWFDQIAVKVA
On to B2, for which the binding result is reported as “binds”.

B3: Vps8 (protein, UniProt Q0P5W1 1-1427)
chain: METEPDQEHLDQNPCARTVEEELSKSFNLEASLSKFSCLDLDKELEFRSDLIDDKEFDIPQVDTPPTLESILNETDDEDESFVLEDPTLLNVDTIDSHSYDTSSVASSDSGDRANLKRKKKLPDSFSLHGSVMRHSLLKGISAQIVSAADKVDAGLPTAIAVSSLIAVGTSHGLALIFDQNQALRLCLGSTSVGGQYGAISALSINNDCSRLLCGFAKGQITMWDLASGKLLRSITDAHPPGTAILHIKFTDDPTLAICNDSGGSVFELTFKRVMGVRTCESRCLFSGSKGEVCCIEPLHSKPELKDHPITQFSLLAMASLTKILVIGLKPSLKVWMTFPYGRMDPSSVPLLAWHFVAVNNSVNPMLAFCRGDMVHFLLVKRDESGAIHVTKQKHLHLYYDLINFTWINSRTVVLLDSVEKLHVIDRQTQEELETMEISEVQLVYNSSHFKSLATGGNVSQALALVGEKACYQSISSYGGQIFYLGTKSVYVMMLRSWRERMDHLLKQDCLTEALALAWSFHEGKAKAVVGLSGDVSKRKAVVADRMVEILFHYADRALKKCPDQGKIQVMEQHFQDTVPVIVDYCLLLQRKDLLFGQMYDKLSENSVAKGVFLECLEPYILSDKLVGITPQVMKDLIVHFQDKKLLENVEALIVHMDITSLDIQQVVLMCWENRLYDAMVYVYNRGMNEFISPMEKLFKVIAPPLNAGKTLTDEQVVMGNKLLVYISCCLAGRAYPLGDIPEDLVPLVKNQVFEFLIRLHSVEASSEEEVYPYVRTLLHFDTREFLNVLALTFEDFKNDKQAVEYQQRIVDILLKVMVENSDFTPSQVGCLFTFLARQLAKPDNTLFVNRTLFDQVLEFLCSPDDDSRHSERQQVLLELLQAGGIVQFEESRLIRMAEKAEFYQICEFMYEREHQYDKIIDCYLHDPLREEEVFNYIHNILSIPGHSAEEKQSVWQKAMNHMEELVSLKPCKAAELVATHFSEQIEVVIGQLQNQLLLFKFLRSLLDPREGVHVNQELLQIPPHITEQFIELLCQFSPDQVIQTLQVLECYRLEETIQITQKYQLHEVTAYLLEKKGDAHGAFLLLLERLQSRLQEMTRQDENTKEDILLKGVEDTMVETIALCQRNSQNLNQQQREALWFPLLEAMMTPQKLSSSAAAPHPHCEALKSLTMQVLNSMAAFIALPSILQRILQDPIYGKGKLGEIQGLILGMLDTFNYEQTLLETTASLLNQDLHWSLCNLRASVSRGLNPKQDYCSICLQQYKRRQEMADEIIVFSCGHLYHSFCLQSKECTLEVEGQTRWACHKCSSSNKAGKLSENPSENKKGRITSSQVKMSPSYHQSKGDPPARKANSEPVLDPQQMQAFDQLCRLYRGSSRLALLTELSQNRGGDSCRPFAGPQSGPAFNSVFQKENFQLQLAPPPVAED
Consider B3, for which the binding result is on record as “binds”.

B4: Fam234b (protein, UniProt Q8BYI8 1-624)
chain: MATVLSRALKLPGKKSPDLGEYDPLTQADSDESEDDLVLNLQQKNGGVKNGKSALGDLPEPDSDADVAGAAKPHLSEVTPEGFPSEPLGGLEQKATSPLVSYVRTSVFLLTLVISMVLVLLCAFLIPCPPRDLHSAWSRRLGSQGGGDLSPLELADVNRDGLRDVLLTFVTTRNGTEGGVGSQPTADLVCLSGMNGSTLWSSPLPEEAQDVTCLDLIPGSVAKTICLVTGTRKMLSAFNATSGKVLWTLNPNHLSNGTLAAPVVVLPDLDEDGVRDLVVLAIGELQPDLCFLLVSGRTGSPVGRPVKYNIVGVGNLIGPQVYITASGAVYILFGFGNIQAVALRDIFVQAQNRDSSPPSLQIEEPEWEKHRSVNLSELIDVYSDGVELLQLVKAPDSNSSSLLITTRQGLVLLRGQDLTPHWKLNLQGLRSQPTPGYFTDDQTLDFLLQTQDGDGMKKMTVVDGGSGSIVWSYSIPCHMKETPTTSAITSDQKSVFLFWAEALTAASLSSDDSSGAEPPGLYHLYLLHPAFPSILLDLSNTTGIVTASEVGINDIWKDAFYVTRTTGMSPEGHPTSLVVSKLSLRWALMEGQMVQLKETTPKIGRGELRRFLSRIKFVDSPYQI
Turning to B4, the binding result is reported as “binds”.

B5: Vps45 (protein, UniProt P97390 1-570)
chain: MNVVFAVKQYISKMIEDSGPGMKVLLMDKETTGIVSMVYTQSEILQKEVYLFERIDSQNREIMKHLKAICFLRPTKENVEYLIQELRRPKYSIYFIYFSNVISKSDVKSLAEADEQEVVAEVQEFYGDYIAVNPHLFSLNILGCCQGRNWDPAQLSRTTQGLTALLLSLKKCPMIRYQLSSEAAKRLGECVKQVISKEYELFEFRRTEVPPLLLILDRCDDAITPLLNQWTYQAMVHELLGINNNRIDLSRVPGISKDLREVVLSAENDEFYANNMYLNFAEIGSNIKNLMEDFQKKRPKEQQKLESIADMKAFVENYPQFKKMSGTVSKHVTVVGELSRLVSERNLLEVSEVEQELACQNDHSSALQNVKRLLQNPKVTEFDAVRLVMLYALHYERHSSNSLPGLIVDLRSKGVAEKYRKLVSAVVEYGGKRVRGSDLFSPKDAVAITKQFLKGLKGVENVYTQHQPFLHETLDHLIKGRLKENLYPYLGPSTLRDRPQDIIVFIIGGATYEEALTVYNLNRTTPGVRIVLGGTTIHNTKSFLEEVLASGLHSRSRESSQATSRSANRR
As for B5, the binding entry was “binds”.

B6: Zdhhc18 (enzyme, UniProt Q5Y5T2 1-380)
chain: MKDCEYQQISPGAAPPPASPGARRPGPAAPPAPSPGPAPGAPRWSGSGSGSGSLGRRPRRKWEVFPGRNRFYCGGRLMLAGHGGVFALTLLLILSTTILFFVFDCPYLARTLTLAIPIIAAILFFFVMSCLLQTSFTDPGILPRATICEAAALEKQIDNTGSSTYRPPPRTREVMINGQTVKLKYCFTCKMFRPPRTSHCSVCDNCVERFDHHCPWVGNCVGRRNYRFFYAFILSLSFLTAFIFACVVTHLTLLSQGSNFLSALKKTPASVLELVICFFSIWSILGLSGFHTYLVASNLTTNEDIKGSWSSKRGGEASVNPYSHKSIITNCCAVLCGPLPPSLIDRRGFVQSDTALPSPIRSDDPACGAKPDASMVGGHP
Take B6: the binding result is recorded as “binds”.
